# No constants are given. Whether binding was seen depends on the method and setting. Binding seen in cells or lysates may run through a third protein. Some results given as binding are weak or reduced against the parent protein; the word gives no strength. Where a sequence is shown, tags or fusion partners need not be part of it.
# B1: Histone PARylation Factor (HPF1), endogenous, Q9NWY4 1-346 (protein)
# chain: MVGGGGKRRPGGEGPQCEKTTDVKKSKFCEADVSSDLRKEVENHYKLSLPEDFYHFWKFCEELDPEKPSDSLSASLGLQLVGPYDILAGKHKTKKKSTGLNFNLHWRFYYDPPEFQTIIIGDNKTQYHMGYFRDSPDEFPVYVGINEAKKNCIIVPNGDNVFAAVKLFLTKKLREITDKKKINLLKNIDEKLTEAARELGYSLEQRTVKMKQRDKKVVTKTFHGAGLVVPVDKNDVGYRELPETDADLKRICKTIVEAASDEERLKAFAPIQEMMTFVQFANDECDYGMGLELGMDLFCYGSHYFHKVAGQLLPLAYNLLKRNLFAEIIEEHLANRSQENIDQLAA
# Biological target: endogenous PARP1 (human (endogenous in U2OS)), P09874
# Experiment: proximity ligation; Duolink PLA with antibodies to the endogenous proteins in fixed, permeabilised cells; DMSO or hydroxyurea 2 or 18 h; control, TPX2 knock-down
# Conditions: remark: other sources report otherwise
binder,measurement,value
B1,binding,binds

# — paper PMC9723622
